# Test results as given in publication PMC12866682 (2025).
# By UniProt entry, the sequences of proteins in these tests, tags left out. Where a name states a change or a piece, a line headed by the entry shows the natural chain unless it says otherwise.
# UniProt P05164: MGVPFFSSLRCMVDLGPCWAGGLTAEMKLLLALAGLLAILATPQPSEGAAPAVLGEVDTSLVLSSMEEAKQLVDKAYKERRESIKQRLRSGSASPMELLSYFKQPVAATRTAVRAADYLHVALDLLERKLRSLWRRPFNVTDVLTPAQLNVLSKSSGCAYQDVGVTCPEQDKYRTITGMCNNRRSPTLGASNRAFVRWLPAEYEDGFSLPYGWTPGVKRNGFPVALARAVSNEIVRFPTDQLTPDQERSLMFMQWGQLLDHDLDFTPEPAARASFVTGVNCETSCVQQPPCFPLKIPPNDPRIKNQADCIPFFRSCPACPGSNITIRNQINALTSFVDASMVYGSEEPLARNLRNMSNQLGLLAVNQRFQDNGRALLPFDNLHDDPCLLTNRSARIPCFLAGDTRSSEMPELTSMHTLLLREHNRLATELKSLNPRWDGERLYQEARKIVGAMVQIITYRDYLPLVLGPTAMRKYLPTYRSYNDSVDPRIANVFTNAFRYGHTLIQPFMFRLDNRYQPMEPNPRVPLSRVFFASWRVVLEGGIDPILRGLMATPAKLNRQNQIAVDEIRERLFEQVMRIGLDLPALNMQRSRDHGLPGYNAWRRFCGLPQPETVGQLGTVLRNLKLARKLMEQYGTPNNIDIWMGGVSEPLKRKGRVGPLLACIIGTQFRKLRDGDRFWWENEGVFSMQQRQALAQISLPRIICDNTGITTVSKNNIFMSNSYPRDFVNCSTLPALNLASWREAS
# Read-outs that look alike come from different tables or passages of the source. These are yes or no findings as the source states them, for the method shown. In cells and extracts the contact can be indirect. Some entries that bind do so weakly or less than the wild type. Tags and fused reporters may be left off the sequences shown.
# T1: HA-tagged TREM2 T96K (UniProt Q9NZC2)
# T1 sequence: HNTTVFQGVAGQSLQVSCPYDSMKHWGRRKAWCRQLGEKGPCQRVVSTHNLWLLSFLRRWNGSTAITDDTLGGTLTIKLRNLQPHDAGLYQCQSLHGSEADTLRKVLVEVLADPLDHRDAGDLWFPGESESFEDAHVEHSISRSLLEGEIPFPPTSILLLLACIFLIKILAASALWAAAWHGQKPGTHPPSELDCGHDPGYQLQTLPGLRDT
# T2: HA-tagged TREM2, WT (full length, FL) (UniProt Q9NZC2)
# T2 sequence: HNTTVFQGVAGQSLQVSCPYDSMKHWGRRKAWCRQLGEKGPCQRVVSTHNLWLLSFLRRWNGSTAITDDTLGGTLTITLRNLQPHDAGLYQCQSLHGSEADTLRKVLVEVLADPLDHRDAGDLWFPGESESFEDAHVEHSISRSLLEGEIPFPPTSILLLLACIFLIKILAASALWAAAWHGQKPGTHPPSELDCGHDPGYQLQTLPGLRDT
# How the values were obtained:
# Experiment in all cases: co-IP; HEK293T cells transfected with HA-tagged TREM2 and FLAG-tagged plasmids for 24 h; lysates immunoprecipitated with anti-HA beads (or anti-FLAG beads), Western blotting for HA and FLAG
# [1] = biological target: T1, HA-tagged TREM2 T96K
# [2] = biological target: T2, HA-tagged TREM2, WT (full length, FL)
# [3] = biological target: T2, HA-tagged TREM2, WT (full length, FL); remark: listed apart in the source
Molecule,binding [1],binding [2],binding [3]
"FLAG-tagged MPO, full length (FL) (from UniProt P05164 49-745) (ligand)",binds,binds,
FLAG-tagged heavy chain (H) of MPO (from UniProt P05164 279-745) (domain or fragment),,binds,
"FLAG-tagged AZU1 (protein, UniProt P20160 27-251) IVGGRKARPRQFPFLASIQNQGRHFCGGALIHARFVMTAASCFQSQNPGVSTVVLGAYDLRRRERQSRQTFSISSMSENGYDPQQNLNDLMLLQLDREANLTSSVTILPLPLQNATVEAGTRCQVAGWGSQRSGGRLSRFPRFVNVTVTPEDQCRPNNVCTGVLTRRGGICNGDGGTPLVCEGLAHGVASFSLGPCGRGPDFFTRVALFRDWIDGVLNNPGPGPA",,,no binding
